# From the supplement of paper PMC8104966
# The other results are listed elsewhere or left out. Repeats in this data set agree poorly, so a single value says little.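 U2OS cells expressing ACE2 were combined with U2OS cells expressing full-length spike, and imaging quantified fusion as the fraction of nuclei displaying both cell types' fluorescent markers. Non-toxic compounds with a fusion z-score under -3, i.e., over three standard deviations below the plate's DMSO wells, are called inhibitory hits.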
# Tested on: U2OS ACE2 x SARS-CoV-2 spike co-culture
# Assay: cell-cell fusion (fraction fused) z-score vs plate DMSO control; higher = more fusion
# Details: 30 µM; 5 h; toxicity class: non-toxic, passed QC
row,SMILES,cell-cell fusion (z-score)
1,C#C[C@]1(O)CCC2C3CCC4=CC(=O)CC[C@@H]4C3CCC21CC (some centres undefined),inactive: 2
2,N#Cc1ccnc(N2C(=O)CC[C@H]2C(=O)N(c2cncc(F)c2)[C@H](C(=O)NC2CC(F)(F)C2)c2ccccc2Cl)c1 [Ivosidenib],inactive: 0.603
3,NC(=O)N1c2ccccc2CC(=O)c2ccccc21,inactive: 2.89
4,N[C@@H](CS(=O)O)C(=O)O [L-Cysteinesulfinic Acid],inactive: 1.49
5,OC[C@H]1O[C@H](O[C@]2(CCl)O[C@H](CCl)[C@@H](O)[C@@H]2O)[C@H](O)[C@@H](O)[C@H]1Cl,inactive: 1.14
6,CCCCOCCOCCOCc1cc2c(cc1CCC)OCO2,inactive: 1.83
7,COc1c(O)cc(O)cc1O,inactive: 2.23
8,CC1(C)S[C@@H]2C(N3C(=O)[C@@H](c4ccccc4)NC3(C)C)C(=O)N2[C@H]1C(=O)[O-].[K+] (some centres undefined),inactive: 0.693
9,C[C@@H](O)[C@H]1C(=O)N2C(C(=O)O)=C(S[C@@H]3CN[C@H](C(=O)Nc4cccc(C(=O)[O-])c4)C3)[C@H](C)[C@H]12.[Na+] [Ertapenem sodium],inactive: 2.26
10,CCc1cncnc1N1CCN(Cc2nc3cc(C(F)(F)F)ccc3[nH]2)CC1,inactive: -0.815
11,C[C@]12CCC3C(CC[C@H]4C[C@@H](O)CC[C@]34C)C1CCC2=O (some centres undefined),inactive: 2.59
12,CC(=O)[C@@]1(O)CC[C@H]2[C@@H]3CCC4=CC(=O)CC[C@]4(C)[C@H]3CC[C@@]21C [17alpha-hydroxyprogesterone],inactive: 1.48
13,CC(COc1ccccc1)NC(C)[C@H](O)c1ccc(O)cc1.Cl (some centres undefined),inactive: 0.217
14,COc1cc(O)ccc1C(C)=O,inactive: 2.2
15,"CO[C@H]1C[C@H]2CC[C@@H](C)[C@@](O)(O2)C(=O)C(=O)N2CCCC[C@H]2C(=O)O[C@H]([C@H](C)C[C@@H]2CC[C@H](OP(C)(C)=O)[C@H](OC)C2)CC(=O)[C@H](C)/C=C(\C)[C@@H](O)[C@@H](OC)C(=O)[C@H](C)C[C@H](C)/C=C/C=C/C=C/1C [Ridaforolimus (Deforolimus, MK-8669)]",active: -9.98
16,Nc1ccc(S(=O)(=O)[N-]c2cnc3ccccc3n2)cc1.[Na+],inactive: 1.1
17,C[C@@H]1CC(=O)NN=C1c1ccc(NN=C(C#N)C#N)cc1,inactive: 1.92
18,Cc1nccn1CC1CCc2c(c3ccccc3n2C)C1=O.Cl.O.O (centres undefined) [Ondansetron hydrochloride],inactive: 3.27
19,Br.Br.N=C(N)SCCN,inactive: 3.22
20,Br.Br.N=C(N)SCCN [2-(2-Aminoethyl)isothiourea dihydrobromide],inactive: 1.56
21,N[C@@H]1CCCC[C@H]1N.O=C1[O][Pt][O]C1=O [Oxaliplatin],inactive: 1.26
22,CCN(CCCc1ccccc1)CCCc1ccccc1.O=C(O)CC(O)(CC(=O)O)C(=O)O,inactive: 1.75

row,SMILES,cell-cell fusion (z-score)
1,NCCc1c[nH]c2ccc(C(N)=O)cc12.O=C(O)/C=C\C(=O)O [5-Carboxamidotryptamine maleate],inactive: -0.017
2,"Cn1c(=O)c2[nH]c(-c3ccccc3)nc2n(C)c1=O [1,3-Dimethyl-8-phenylxanthine]",inactive: 2.41
3,O=Cc1ccc(O)c(O)c1O,inactive: 2.6
4,CC1O[C@@H](Oc2c(-c3ccc(O)c(O)c3)oc3cc(O)cc(O)c3c2=O)[C@H](O)[C@H](O)[C@H]1O (some centres undefined),inactive: 2.81
5,CCOC(=O)O[C@]1(C(=O)COC(=O)CC)CC[C@H]2[C@@H]3CCC4=CC(=O)C=C[C@]4(C)[C@H]3[C@@H](O)C[C@@]21C,inactive: 3.81
6,Cc1nc2ccccc2n1Cc1ccc(Cl)cc1,active: -4.77
7,CC(C)(C)NCC(O)c1ccccc1Cl.Cl (centres undefined),inactive: -1.09
8,CC(C)(C)NCC(O)c1ccccc1Cl.Cl (centres undefined) [Tulobuterol hydrochloride],active: -4.37
9,COc1ccc(F)c(F)c1C(=O)c1cnc(NC2CCN(S(C)(=O)=O)CC2)nc1N,inactive: 2.35
10,"C[C@H]1C2Cc3ccc(O)cc3[C@@]1(C)CCN2CC1CC1 (single isomer, unassigned; (+)) [(+)-Cyclazocine]",inactive: 1.32
11,Cc1ccc(-c2csc3ncnc(SCCC(=O)O)c23)cc1,inactive: 1.65
12,Cc1nnc(C(C)C)n1C1CC2CCC(C1)N2CC[C@H](NC(=O)C1CCC(F)(F)CC1)c1ccccc1 (some centres undefined) [Maraviroc],inactive: 1.52
13,NC[C@H]1O[C@H](O[C@H]2C(O[C@@H]3O[C@H](CO)[C@@H](O)[C@H]3O)[C@@H](O)[C@H](N)C[C@@H]2N)[C@H](N)[C@@H](O)[C@@H]1O.O=S(=O)(O)O (some centres undefined),inactive: 0.484
14,O=C(O)C1CCNCC1 [Isonipecotic acid],inactive: 2.31
15,CCN1CCN(C(=O)N[C@@H](C(=O)N[C@@H]2C(=O)N3[C@@H]2SC(C)(C)[C@@H]3C(=O)[O-])c2ccccc2)C(=O)C1=O.[Na+] [Piperacillin sodium salt],inactive: 2.7
16,COc1ccc(-c2cc(=O)c3c(OC)cc(OC)cc3o2)cc1,inactive: 1.29
17,O=C(O)Cc1ccccc1Nc1c(Cl)cccc1Cl [Diclofenac],inactive: 0.809
18,CNNCc1ccc(C(=O)NC(C)C)cc1.Cl [Procarbazine hydrochloride (Matulane)],inactive: 1.43
19,CO[C@H]1C[C@H]2CC[C@@H](C)[C@@](O)(O2)C(=O)C(=O)N2CCCC[C@H]2C(=O)O[C@H]([C@H](C)C[C@@H]2CC[C@H](OC(=O)C(C)(CO)CO)[C@H](OC)C2)CC(=O)[C@H](C)/C=C(\C)[C@@H](O)[C@@H](OC)C(=O)[C@H](C)C[C@H](C)/C=C/C=C/C=C/1C,active: -4.9
20,CO[C@H]1C[C@H]2CC[C@@H](C)[C@@](O)(O2)C(=O)C(=O)N2CCCC[C@H]2C(=O)O[C@H]([C@H](C)C[C@@H]2CC[C@H](OC(=O)C(C)(CO)CO)[C@H](OC)C2)CC(=O)[C@H](C)/C=C(\C)[C@@H](O)[C@@H](OC)C(=O)[C@H](C)C[C@H](C)/C=C/C=C/C=C/1C [Temsirolimus (Torisel)],inactive: 0.708
21,NS(=O)(=O)c1cc2c(cc1C(F)(F)F)NCNS2(=O)=O,inactive: 2.02
22,CC1=Nc2ccc(Cl)cc2S(=O)(=O)N1 [Diazoxide],inactive: 3.45

row,SMILES,cell-cell fusion (z-score)
1,CC(C)NCC(O)COc1ccc(COCCOC(C)C)cc1.CC(C)NCC(O)COc1ccc(COCCOC(C)C)cc1.O=C(O)/C=C/C(=O)O (centres undefined) [Bisoprolol hemifumarate salt],inactive: 2.91
2,CCC(=O)NC[C@@H]1C[C@H]1c1cccc2c1CCO2 [Tasimelteon],inactive: 1.67
3,C[C@H](O)C(=O)C1=Nc2c(nc(N)[nH]c2=O)NC1 [Sepiapterin],inactive: 1.91
4,O=C(/C=C/c1ccc(O)c(O)c1)OCCc1ccccc1 [Caffeic acid phenethyl ester],inactive: 1.56
5,COC(=O)Nc1nc2cc(C(=O)c3ccccc3)ccc2[nH]1,inactive: 0.722
6,OC1(c2ccc(Cl)c(C(F)(F)F)c2)CCN(CCCC(c2ccc(F)cc2)c2ccc(F)cc2)CC1,inactive: 3.48
7,NC(CO)(CO)CO.O=C(c1ccccc1)c1ccc2n1CCC2C(=O)O (centres undefined),inactive: 2.46
8,NC(CO)(CO)CO.O=C(c1ccccc1)c1ccc2n1CCC2C(=O)O (centres undefined) [Ketorolac tris salt],inactive: 2.77
9,CNC(=O)c1cc(Oc2ccc(NC(=O)Nc3ccc(Cl)c(C(F)(F)F)c3)cc2)ccn1.Cc1ccc(S(=O)(=O)O)cc1 [Sorafenib Tosylate],active: -12.3
10,CNC(=O)c1cc(Oc2ccc(NC(=O)Nc3ccc(Cl)c(C(F)(F)F)c3)cc2)ccn1.Cc1ccc(S(=O)(=O)O)cc1 [Sorafenib (Nexavar)],active: -5.34
11,Cc1c([N+](=O)[O-])cc2[nH]c(=O)c(=O)[nH]c2c1CN1CCCC1.O=S(=O)(O)CCO,inactive: 2.82
12,COc1ccc(-c2cc3ncc(C)n3c(Nc3ncccc3C(N)=O)n2)cc1OC.Cl [BAY 61-3606 hydrochloride hydrate],inactive: -1.02
13,Oc1cc(Cl)ccc1Oc1ccc(Cl)cc1Cl,inactive: -2.88
14,Cc1ccc(Nc2nccc(N(C)c3ccc4c(C)n(C)nc4c3)n2)cc1S(N)(=O)=O [Pazopanib],inactive: 1.17
15,O=C1CC[C@@H](C(=O)N2CSC[C@H]2C(=O)O)N1,inactive: 1.94
16,CC(C)C(=O)Oc1ccc(CO)cc1[C@H](CCN(C(C)C)C(C)C)c1ccccc1.O=C(O)/C=C/C(=O)O [Fesoterodine fumarate],inactive: 3.4
17,CCN(CC)CC#CCOC(=O)C(O)(c1ccccc1)C1CCCCC1.Cl (centres undefined),inactive: 4.68
18,CCN(CC)CC#CCOC(=O)C(O)(c1ccccc1)C1CCCCC1.Cl (centres undefined) [Oxybutynin Chloride],inactive: 2.35
19,OC[C@H]1O[C@H](Oc2cc(O)cc(/C=C/c3ccc(O)cc3)c2)[C@H](O)[C@@H](O)[C@@H]1O,inactive: 1.38
20,C=CCc1ccc(O)c(-c2ccc(O)c(CC=C)c2)c1 [Honokiol],inactive: -0.711

# Rewritten as tab-separated lines: part of the list above.
row	SMILES	cell-cell fusion (z-score)
15	CCN1CCN(C(=O)N[C@@H](C(=O)N[C@@H]2C(=O)N3[C@@H]2SC(C)(C)[C@@H]3C(=O)[O-])c2ccccc2)C(=O)C1=O.[Na+] [Piperacillin sodium salt]	inactive: 2.7
16	COc1ccc(-c2cc(=O)c3c(OC)cc(OC)cc3o2)cc1	inactive: 1.29
17	O=C(O)Cc1ccccc1Nc1c(Cl)cccc1Cl [Diclofenac]	inactive: 0.809
18	CNNCc1ccc(C(=O)NC(C)C)cc1.Cl [Procarbazine hydrochloride (Matulane)]	inactive: 1.43
19	CO[C@H]1C[C@H]2CC[C@@H](C)[C@@](O)(O2)C(=O)C(=O)N2CCCC[C@H]2C(=O)O[C@H]([C@H](C)C[C@@H]2CC[C@H](OC(=O)C(C)(CO)CO)[C@H](OC)C2)CC(=O)[C@H](C)/C=C(\C)[C@@H](O)[C@@H](OC)C(=O)[C@H](C)C[C@H](C)/C=C/C=C/C=C/1C	active: -4.9
